Experimental findings from publication PMC7862700 are described below.

The chains behind the UniProt entries cited, without tags or fusion partners. Where a name states a change or a piece, a line headed by the entry shows the natural chain unless it says otherwise.
UniProt Q9Y603: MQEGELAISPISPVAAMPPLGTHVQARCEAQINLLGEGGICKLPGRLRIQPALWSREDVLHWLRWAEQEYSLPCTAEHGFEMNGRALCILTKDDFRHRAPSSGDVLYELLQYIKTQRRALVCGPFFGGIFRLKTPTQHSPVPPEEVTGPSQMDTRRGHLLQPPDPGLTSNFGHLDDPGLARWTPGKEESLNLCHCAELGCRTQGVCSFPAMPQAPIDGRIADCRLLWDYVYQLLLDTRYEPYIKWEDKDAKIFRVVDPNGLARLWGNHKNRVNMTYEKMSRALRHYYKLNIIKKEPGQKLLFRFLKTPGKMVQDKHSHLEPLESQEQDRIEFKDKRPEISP
UniProt P41212: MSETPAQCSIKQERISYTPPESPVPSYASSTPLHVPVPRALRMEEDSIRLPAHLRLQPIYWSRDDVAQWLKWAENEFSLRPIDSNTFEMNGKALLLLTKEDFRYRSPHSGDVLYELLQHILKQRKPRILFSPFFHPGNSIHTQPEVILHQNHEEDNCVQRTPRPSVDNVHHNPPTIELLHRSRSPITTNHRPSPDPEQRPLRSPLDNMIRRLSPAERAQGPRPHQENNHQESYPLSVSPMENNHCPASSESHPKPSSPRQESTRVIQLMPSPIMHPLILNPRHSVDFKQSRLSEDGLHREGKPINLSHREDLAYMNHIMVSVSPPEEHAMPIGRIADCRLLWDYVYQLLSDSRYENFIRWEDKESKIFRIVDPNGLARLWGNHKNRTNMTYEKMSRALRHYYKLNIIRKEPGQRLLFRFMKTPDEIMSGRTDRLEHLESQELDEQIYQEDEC

What all share (test): DAPPL (digital affinity profiling via proximity ligation, sequencing)
Holding throughout (conditions): 10 mM Tris-HCl pH 7.5, 50 mM NaCl, 1 mM DTT, 4% glycerol, room temperature, 30 min; GST-TFs on glutathione beads, 16-mer random dsDNA library, 0.1% …; high values mean tight binding; double strand, one strand shown; scale: fold enrichment (6-mer frequency, TF over GST control)

One test deals with T1, ELF3 (UniProt P78545).
T1 sequence: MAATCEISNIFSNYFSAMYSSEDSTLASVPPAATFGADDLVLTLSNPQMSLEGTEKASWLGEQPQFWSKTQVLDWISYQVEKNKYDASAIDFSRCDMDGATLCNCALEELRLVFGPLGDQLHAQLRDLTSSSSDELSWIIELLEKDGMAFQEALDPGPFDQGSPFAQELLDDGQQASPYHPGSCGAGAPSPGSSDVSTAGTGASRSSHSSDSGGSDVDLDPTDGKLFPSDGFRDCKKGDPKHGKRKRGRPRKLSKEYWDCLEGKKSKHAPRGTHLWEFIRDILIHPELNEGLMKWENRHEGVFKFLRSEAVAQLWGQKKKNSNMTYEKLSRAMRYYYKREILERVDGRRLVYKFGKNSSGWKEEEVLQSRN

The target of the next test is ETV7 (UniProt Q9Y603).
The next test addresses ETV6 (UniProt P41212).

This is a selection; strong and weak results do not stand in their true shares. At the low end of the ranking the order means little.

Regarding TCTCTG, the binding signal amounted to 1.37 with ELF3 and 1.29 with ETV7.
Take CCCATG: the binding signal in the test with ELF3 worked out at 0.962; in the test with ETV7 it was 0.97.
The corresponding values for GATGCC are 1.4 and 1.27.
For CGCTAC, the binding signal was found to be 1.24 with ELF3, 1.2 with ETV7 and 1.27 with ETV6.
For CGAGTT, the binding signal with ELF3 amounted to 1.16; with ETV7 it was 1.08.
The corresponding values for GTCCCT are 1.23 and 1.22.
Take TTTAGC: the figures for the binding signal with ELF3 and with ETV7 were 1.08 and 1.03, respectively.
The corresponding values for GATGAA are 0.979 and 1.24.
The corresponding values for GATGAT are 1.33 and 1.36.
Taken in the same sequence, the figures for CTAGCT were 1.07 and 1.33.
For GAAAAG, the values for the binding signal with ELF3, in the test with ETV7 and with ETV6 were 0.986, 1.13 and 1.18, respectively.
With AAATTT, the binding signal with ELF3 was determined as 1.43; with ETV7, 1.36.
As for GGTCCC, the binding signal came to 0.961 with ELF3, 1.15 with ETV7 and 1.09 with ETV6.
Take GCTTTA: the binding signal worked out at 1.13 with ELF3 and 1.19 with ETV7.
With TGAACT, the figures for the binding signal with ELF3, with ETV7 and with ETV6 were 1.11, 1.21 and 1.22, respectively.
For the sequence ATCATT, the binding signal with ELF3 was determined as 1.05; in the test with ETV7, 1.01; with ETV6, 1.06.
Regarding TAGCGG, the binding signal with ELF3 came to 1.02; with ETV7 it was 1.12; with ETV6 it was 1.12.
As to ACGGCC, the figures for the binding signal in the test with ELF3 and with ETV7 were 0.961 and 1.13, respectively.
Turning to ATCTTT, the results for the binding signal with ELF3, with ETV7 and in the test with ETV6 were 1.17, 1.13 and 1.2, respectively.
For the sequence GAATCT, the binding signal with ELF3 and in the test with ETV7 was 1.03 in each case.
For AAAATT, the binding signal was 1.43 in the test with ELF3 and 1.5 with ETV7.
Taken in the same sequence, the figures for ATCGTC were 0.795 and 0.976.
As for TTGAAC, the results for the binding signal with ELF3, with ETV7 and in the test with ETV6 were 0.932, 1.18 and 1.1, respectively.
On to ATCATA, for which the binding signal was determined as 0.994 with ELF3, 1.1 with ETV7 and 1.1 in the test with ETV6.
In the case of GATACT, the binding signal with ELF3 came out at 0.98; with ETV7, 0.983; with ETV6 it was 1.07.
Turning to CTCAGG, the values for the binding signal in the test with ELF3 and in the test with ETV7 were 1.15 and 0.978, respectively.
With AGCCCT, the binding signal with ELF3 amounted to 1.1; with ETV7, 0.971.
Regarding GTCTAC, the binding signal with ELF3 was 0.978; with ETV7, 0.959.
ATTGCC: the binding signal with ELF3 was 1.24; with ETV7 it was 1.22; with ETV6, 1.26.
On to TCTACG, for which the binding signal with ELF3 was found to be 1.5; in the test with ETV7, 1.36.
With GCCTAT, the results for the binding signal with ELF3, with ETV7 and with ETV6 were 0.868, 1.24 and 1.19, respectively.
With TAAAGT, the binding signal with ELF3 was 1.13; with ETV7 it was 1.25.
The corresponding values for CAAAAA are 1.12 and 1.1.
As for ACTAGC, the figures for the binding signal with ELF3 and with ETV7 were 1.01 and 1.16, respectively.
TAGGTT: the binding signal with ELF3 worked out at 1.14; in the test with ETV7 it was 0.945.
For TCCTAC, the results for the binding signal in the test with ELF3 and in the test with ETV6 were 1.16 and 1.47, respectively.
Regarding TATGGC, the binding signal with ELF3 and in the test with ETV6 was 1.29 in each case.
For the sequence CTTCCT, the results for the binding signal in the test with ELF3 and in the test with ETV6 were 2.95 and 3.81, respectively.
As for TTCACC, the binding signal turned out to be 1.57 in the test with ELF3 and 1.35 with ETV6.
Regarding TTAGTA, the binding signal with ELF3 stood at 1.15; with ETV6 it was 1.12.
Taken in the same sequence, the figures for CTCTAG were 1.1 and 1.34.
As for AATTCA, the values for the binding signal with ELF3 and in the test with ETV6 were 1.35 and 1.23, respectively.
For ACTAAC, the binding signal turned out to be 1.25 with ELF3 and 1.22 in the test with ETV6.
For the sequence CAATCA, the binding signal with ELF3 was 1.12; in the test with ETV6, 1.16.
Turning to TCGACC, the binding signal worked out at 1.23 with ELF3 and 1.3 in the test with ETV6.
As for GTATTA, the binding signal turned out to be 1.09 with ELF3 and 1.16 with ETV6.
Taken in the same sequence, the figures for ACACAC were 1.23 and 1.21.
TATACT: the values for the binding signal with ELF3 and with ETV6 were 1.3 and 1.45, respectively.
As for CGATGA, the figures for the binding signal in the test with ELF3 and with ETV6 were 0.954 and 0.912, respectively.
The corresponding values for ATGACT are 1.46 and 1.3.
With CGTTAA, the binding signal came out at 1.27 in the test with ELF3 and 1.16 with ETV6.
As to CTGGAC, the binding signal stood at 0.962 with ELF3 and 1.09 with ETV6.
Consider TAACGA, for which the binding signal with ELF3 was found to be 1.02; in the test with ETV6 it was 1.08.
For GGTCCT, the binding signal with ELF3 was found to be 0.881; with ETV6 it was 0.969.
Take GTGGCT: the values for the binding signal with ELF3 and with ETV6 were 1.26 and 1.07, respectively.
For CTACTT, the values for the binding signal in the test with ELF3 and in the test with ETV6 were 1.89 and 2.02, respectively.
Taken in the same sequence, the figures for AAATGT were 1.54 and 1.31.
Regarding GATGGT, the binding signal with ELF3 was found to be 1.19; with ETV6, 1.1.
The corresponding values for CCTGGG are 1.06 and 1.1.
For the sequence AATTGC, the binding signal with ELF3 amounted to 1.5; in the test with ETV6, 1.43.
In the case of GATTTC, the binding signal in the test with ELF3 turned out to be 1.62; with ETV6, 1.8.
Turning to ACAGAT, the binding signal with ELF3 was 0.853; with ETV6, 0.944.
With CACATT, the binding signal stood at 1.43 in the test with ELF3 and 1.15 in the test with ETV6.
Regarding ATGAAT, the results for the binding signal with ELF3 and in the test with ETV6 were 1.08 and 1.15, respectively.
On to AACGAA, for which the figures for the binding signal with ELF3 and in the test with ETV6 were 1.19 and 1.17, respectively.
For GTTTGG, the figures for the binding signal with ELF3 and with ETV6 were 0.939 and 0.966, respectively.
Taken in the same sequence, the figures for TACCTC were 1.27 and 1.11.
The corresponding values for TGCTGA are 1.09 and 1.01.
Consider CATCCC, for which the binding signal with ELF3 amounted to 1.27; in the test with ETV6, 1.24.
On to AAGTCC, for which the binding signal with ELF3 worked out at 1.3; with ETV6, 1.2.
Consider CCTTTC, for which the binding signal is 1.42 with ELF3 and 1.62 with ETV6.
As to CTCTTG, the figures for the binding signal with ELF3 and with ETV6 were 1.22 and 1.2, respectively.
Regarding CATATA, the binding signal in the test with ELF3 was determined as 1.07; with ETV6 it was 1.12.
For the sequence TTGGTG, the binding signal with ELF3 came to 1.3; with ETV6 it was 1.18.
In the case of GTGCTT, the binding signal is 1.14 with ELF3 and 1.37 in the test with ETV6.
TCACGC yielded a binding signal in the test with ETV7 of 1.16.
For TTATCA, the binding signal with ELF3 was found to be 0.949; in the test with ETV6, 1.
In the case of TACTTC, the binding signal is 3.4 with ELF3 and 4.67 with ETV6.
For GTACTT, the binding signal with ELF3 was 2.04; in the test with ETV6 it was 2.47.
As for ACTTTA, the binding signal in the test with ELF3 was found to be 1.23; with ETV6, 1.18.
The sequence ATACTA returned a binding signal with ETV7 of 1.14.
As to CGTCTC, the binding signal with ELF3 and with ETV6 was 1.46 each time.
For the sequence CCACGC, the binding signal with ETV7 is 1.15.
Consider TCTGTT, for which the binding signal with ELF3 came to 1.53; with ETV6 it was 1.35.
Taken in the same sequence, the figures for GCTGAT were 1.16 and 0.986.
With CTGTTA, in the test with ETV7, the binding signal stood at 1.12.
With TTGCGT, the binding signal in the test with ETV7 came out at 0.963.
With CCCACA, the binding signal with ELF3 and with ETV6 was 1.14 in each case.
In the test with ETV7, ATTAAT came in with a binding signal of 1.21.
In the test with ETV7, AGTATC gave a binding signal of 1.13.
In the test with ETV7, AGGCTC gave a binding signal of 1.04.
In the case of AAGAAA, the binding signal in the test with ELF3 turned out to be 1.23; with ETV6 it was 1.22.
Take AAGCAC: the binding signal with ELF3 was determined as 0.995; with ETV6, 1.28.
As to CGTCTA, the binding signal with ELF3 was 1.29; with ETV6, 1.26.
The corresponding values for CACTCG are 0.932 and 1.1.
In the case of TACTAG, the binding signal with ELF3 came to 0.899; in the test with ETV6 it was 0.974.
As for CACTTC, the binding signal in the test with ELF3 was determined as 3.05; with ETV6 it was 4.24.
For the sequence ATCTCT, the binding signal worked out at 1.26 in the test with ELF3 and 1.27 with ETV6.
Turning to TCCGGA, the results for the binding signal with ELF3 and with ETV6 were 2.23 and 2.7, respectively.
CCCCAT: the binding signal came out at 1.16 with ELF3 and 1.25 with ETV6.
TGGTGT yielded a binding signal in the test with ETV7 of 1.08.
With CAACAA, the binding signal in the test with ELF3 came to 1.2; with ETV6, 1.01.
ATGGGT displayed a binding signal in the test with ETV7 of 1.41.
Take TGCAAA: in the test with ETV7, the binding signal came to 1.09.
On to CTCTTT, for which the binding signal with ELF3 and with ETV6 was 1.4 throughout.
In the test with ETV7, CTTAGA registered a binding signal of 1.07.
Consider TATAAG, for which the binding signal was 1.23 with ELF3 and 1.19 with ETV6.
In the case of TGCACG, the results for the binding signal in the test with ELF3 and in the test with ETV6 were 1.26 and 1.06, respectively.
In the test with ETV7, CGGCTT registered a binding signal of 0.977.
TCGTTC showed a binding signal with ETV7 of 1.15.
On to TGATGG, for which the binding signal was 1.32 with ELF3 and 1.21 with ETV6.
For the sequence AAAGAA, the binding signal was 1.29 with ELF3 and 1.3 with ETV6.
Consider GCCGAC, for which the figures for the binding signal in the test with ELF3 and with ETV6 were 1 and 1.08, respectively.
ATCTCG: the values for the binding signal with ETV7 and with ETV6 were 1.38 and 1.3, respectively.
The corresponding values for TTTCCT are 2.31 and 2.86.
Turning to GCATCC, the binding signal came out at 1.43 with ETV7 and 1.57 in the test with ETV6.
As for CGCGAC, the binding signal in the test with ETV7 worked out at 0.946; with ETV6, 1.04.
On to CCTCTC, for which the binding signal with ETV7 was 1.44.
Regarding ACGATC, the binding signal turned out to be 1 with ETV7 and 0.995 with ETV6.
For the sequence CTTTTC, the binding signal with ETV7 is 1.49.
